Laboratory results from paper PMC5580921, “Homeodomain-like DNA binding proteins control the haploid-to-diploid transition in Dictyostelium”.
These are yes or no findings as the source states them, for the method shown.

T1: MatB (Dictyostelium discoideum, UniProt D3UFE5 1-107)
T1 sequence: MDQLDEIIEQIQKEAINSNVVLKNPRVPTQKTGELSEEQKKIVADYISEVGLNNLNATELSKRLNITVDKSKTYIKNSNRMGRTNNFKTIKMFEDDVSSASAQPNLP


Key:
[1] = target: MatA (Dictyostelium discoideum) (UniProt D3UFF3); assay: SEC-MALS; Superdex 75 10/300 GL, 0.5 ml/min; 20 mM phosphate (pH 7), 50 mM NaCl, 2 mM EDTA; both purified
MatB = target: T1, MatB; assay: as above

| binding [1] | binding (MatB) | Binder |
| --- | --- | --- |
| no binding |  | MatA (protein, UniProt D3UFF3 1-107) MDPLDKIINDIKKEANDSGVTLAPLSVPKPKLEELSEQQKIILAEYIAEVGLQNITAITLSKKLNITVEKAKNYIKNSNRLGRTNNLKTIGILQEEVSSMEAKSMTW |
|  | no binding | MatB (protein, UniProt D3UFE5 1-107) MDQLDEIIEQIQKEAINSNVVLKNPRVPTQKTGELSEEQKKIVADYISEVGLNNLNATELSKRLNITVDKSKTYIKNSNRMGRTNNFKTIKMFEDDVSSASAQPNLP |
